Data published in the supplement of paper PMC5836539.
± gives the standard deviation of the averaged measurements. This data set is noisy: repeats of one test often differ as much as different tests do.

The chains behind the UniProt entries cited, without tags or fusion partners. Where a name states a change or a piece, a line headed by the entry shows the natural chain unless it says otherwise.
UniProt Q8NE71: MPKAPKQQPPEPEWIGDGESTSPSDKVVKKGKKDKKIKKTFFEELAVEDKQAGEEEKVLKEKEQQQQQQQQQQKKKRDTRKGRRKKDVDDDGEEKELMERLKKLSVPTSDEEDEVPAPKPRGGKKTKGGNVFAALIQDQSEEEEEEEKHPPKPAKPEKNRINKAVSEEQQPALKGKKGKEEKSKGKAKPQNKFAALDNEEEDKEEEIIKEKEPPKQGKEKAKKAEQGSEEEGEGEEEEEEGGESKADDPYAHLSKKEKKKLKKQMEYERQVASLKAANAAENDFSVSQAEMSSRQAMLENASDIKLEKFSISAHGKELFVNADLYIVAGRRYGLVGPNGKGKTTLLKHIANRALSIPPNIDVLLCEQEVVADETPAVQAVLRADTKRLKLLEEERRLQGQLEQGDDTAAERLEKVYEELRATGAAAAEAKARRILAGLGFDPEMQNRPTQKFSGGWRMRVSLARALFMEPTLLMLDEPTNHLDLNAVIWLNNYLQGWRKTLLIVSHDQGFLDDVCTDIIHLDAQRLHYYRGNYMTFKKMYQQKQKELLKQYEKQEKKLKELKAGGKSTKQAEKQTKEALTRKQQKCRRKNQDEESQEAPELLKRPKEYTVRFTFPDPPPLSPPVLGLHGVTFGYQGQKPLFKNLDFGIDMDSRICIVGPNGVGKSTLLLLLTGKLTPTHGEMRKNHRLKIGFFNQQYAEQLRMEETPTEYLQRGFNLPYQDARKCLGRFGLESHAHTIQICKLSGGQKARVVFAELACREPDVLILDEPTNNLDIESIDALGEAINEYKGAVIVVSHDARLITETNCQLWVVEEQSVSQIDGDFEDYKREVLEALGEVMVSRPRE
UniProt P53396: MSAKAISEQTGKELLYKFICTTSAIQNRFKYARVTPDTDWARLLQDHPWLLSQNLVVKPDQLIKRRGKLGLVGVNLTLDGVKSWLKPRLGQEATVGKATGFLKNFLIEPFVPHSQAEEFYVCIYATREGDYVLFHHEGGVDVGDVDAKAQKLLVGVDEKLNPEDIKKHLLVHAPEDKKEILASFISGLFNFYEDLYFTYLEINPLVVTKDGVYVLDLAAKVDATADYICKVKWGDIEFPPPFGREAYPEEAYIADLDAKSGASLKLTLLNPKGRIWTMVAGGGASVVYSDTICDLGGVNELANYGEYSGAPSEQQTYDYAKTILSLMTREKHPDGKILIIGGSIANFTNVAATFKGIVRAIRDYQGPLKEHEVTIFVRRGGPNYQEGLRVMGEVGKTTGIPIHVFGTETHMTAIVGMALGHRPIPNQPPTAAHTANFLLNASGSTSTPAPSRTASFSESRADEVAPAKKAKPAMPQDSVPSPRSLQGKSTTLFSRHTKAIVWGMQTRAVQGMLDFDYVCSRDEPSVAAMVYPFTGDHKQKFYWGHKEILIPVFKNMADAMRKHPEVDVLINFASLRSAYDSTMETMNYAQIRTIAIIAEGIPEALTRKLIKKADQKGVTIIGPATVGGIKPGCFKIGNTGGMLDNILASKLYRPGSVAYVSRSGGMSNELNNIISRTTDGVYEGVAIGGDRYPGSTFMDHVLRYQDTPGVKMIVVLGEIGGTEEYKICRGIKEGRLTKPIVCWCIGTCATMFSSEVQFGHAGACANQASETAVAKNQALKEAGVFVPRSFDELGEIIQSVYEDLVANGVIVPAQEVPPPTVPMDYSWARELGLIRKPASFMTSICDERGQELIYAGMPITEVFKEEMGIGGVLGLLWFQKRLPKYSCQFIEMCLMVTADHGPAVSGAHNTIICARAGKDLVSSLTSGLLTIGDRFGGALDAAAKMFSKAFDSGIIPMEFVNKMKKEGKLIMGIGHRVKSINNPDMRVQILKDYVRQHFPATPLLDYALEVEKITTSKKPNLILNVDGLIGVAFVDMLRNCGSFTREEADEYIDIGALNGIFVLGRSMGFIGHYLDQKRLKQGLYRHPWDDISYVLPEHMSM
UniProt Q9Y6D5: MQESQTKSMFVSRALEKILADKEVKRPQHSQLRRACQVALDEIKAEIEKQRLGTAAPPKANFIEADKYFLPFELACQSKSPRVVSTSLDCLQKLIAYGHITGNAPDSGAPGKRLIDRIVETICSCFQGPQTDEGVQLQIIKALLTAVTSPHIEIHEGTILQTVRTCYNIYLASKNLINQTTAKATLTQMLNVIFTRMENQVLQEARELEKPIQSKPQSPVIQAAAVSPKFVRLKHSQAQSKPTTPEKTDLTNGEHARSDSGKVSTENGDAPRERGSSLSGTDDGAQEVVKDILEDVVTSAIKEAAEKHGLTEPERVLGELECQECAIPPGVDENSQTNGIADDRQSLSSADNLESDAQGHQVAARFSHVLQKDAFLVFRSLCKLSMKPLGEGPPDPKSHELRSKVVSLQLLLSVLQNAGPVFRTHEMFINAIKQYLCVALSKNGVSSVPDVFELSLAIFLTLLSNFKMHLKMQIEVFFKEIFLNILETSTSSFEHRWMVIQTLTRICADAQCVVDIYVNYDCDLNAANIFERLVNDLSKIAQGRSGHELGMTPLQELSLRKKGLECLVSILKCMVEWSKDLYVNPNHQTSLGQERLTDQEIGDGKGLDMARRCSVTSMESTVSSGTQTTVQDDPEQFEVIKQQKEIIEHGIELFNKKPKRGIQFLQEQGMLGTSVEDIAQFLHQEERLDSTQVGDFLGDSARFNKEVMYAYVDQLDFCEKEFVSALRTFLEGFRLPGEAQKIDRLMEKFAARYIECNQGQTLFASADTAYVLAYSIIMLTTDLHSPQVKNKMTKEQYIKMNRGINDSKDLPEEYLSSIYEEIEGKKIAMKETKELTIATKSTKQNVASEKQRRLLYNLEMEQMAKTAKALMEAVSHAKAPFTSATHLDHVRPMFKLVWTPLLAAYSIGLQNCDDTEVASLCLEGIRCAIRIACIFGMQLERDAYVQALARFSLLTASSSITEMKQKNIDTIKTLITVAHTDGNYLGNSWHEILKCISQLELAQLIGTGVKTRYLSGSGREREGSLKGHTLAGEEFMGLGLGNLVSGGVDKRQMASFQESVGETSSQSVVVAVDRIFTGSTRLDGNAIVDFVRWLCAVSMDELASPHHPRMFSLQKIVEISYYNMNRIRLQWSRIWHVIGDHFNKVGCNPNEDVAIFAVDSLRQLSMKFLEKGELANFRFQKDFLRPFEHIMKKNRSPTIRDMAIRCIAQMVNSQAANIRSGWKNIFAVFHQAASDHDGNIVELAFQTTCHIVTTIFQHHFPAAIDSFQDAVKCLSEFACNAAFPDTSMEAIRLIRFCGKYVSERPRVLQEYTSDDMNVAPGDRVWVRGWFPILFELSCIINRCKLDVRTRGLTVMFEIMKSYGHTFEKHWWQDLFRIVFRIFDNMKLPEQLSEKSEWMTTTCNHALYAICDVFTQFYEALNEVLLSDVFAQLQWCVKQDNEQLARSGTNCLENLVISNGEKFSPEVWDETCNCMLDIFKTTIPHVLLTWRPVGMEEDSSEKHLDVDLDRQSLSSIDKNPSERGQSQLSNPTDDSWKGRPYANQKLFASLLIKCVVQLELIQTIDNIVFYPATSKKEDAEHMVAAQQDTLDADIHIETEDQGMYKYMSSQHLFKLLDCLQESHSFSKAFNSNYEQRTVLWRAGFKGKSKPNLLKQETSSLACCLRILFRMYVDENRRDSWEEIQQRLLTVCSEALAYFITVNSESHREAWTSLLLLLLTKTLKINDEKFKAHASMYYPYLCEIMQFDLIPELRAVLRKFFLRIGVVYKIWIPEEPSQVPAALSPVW
UniProt O15085: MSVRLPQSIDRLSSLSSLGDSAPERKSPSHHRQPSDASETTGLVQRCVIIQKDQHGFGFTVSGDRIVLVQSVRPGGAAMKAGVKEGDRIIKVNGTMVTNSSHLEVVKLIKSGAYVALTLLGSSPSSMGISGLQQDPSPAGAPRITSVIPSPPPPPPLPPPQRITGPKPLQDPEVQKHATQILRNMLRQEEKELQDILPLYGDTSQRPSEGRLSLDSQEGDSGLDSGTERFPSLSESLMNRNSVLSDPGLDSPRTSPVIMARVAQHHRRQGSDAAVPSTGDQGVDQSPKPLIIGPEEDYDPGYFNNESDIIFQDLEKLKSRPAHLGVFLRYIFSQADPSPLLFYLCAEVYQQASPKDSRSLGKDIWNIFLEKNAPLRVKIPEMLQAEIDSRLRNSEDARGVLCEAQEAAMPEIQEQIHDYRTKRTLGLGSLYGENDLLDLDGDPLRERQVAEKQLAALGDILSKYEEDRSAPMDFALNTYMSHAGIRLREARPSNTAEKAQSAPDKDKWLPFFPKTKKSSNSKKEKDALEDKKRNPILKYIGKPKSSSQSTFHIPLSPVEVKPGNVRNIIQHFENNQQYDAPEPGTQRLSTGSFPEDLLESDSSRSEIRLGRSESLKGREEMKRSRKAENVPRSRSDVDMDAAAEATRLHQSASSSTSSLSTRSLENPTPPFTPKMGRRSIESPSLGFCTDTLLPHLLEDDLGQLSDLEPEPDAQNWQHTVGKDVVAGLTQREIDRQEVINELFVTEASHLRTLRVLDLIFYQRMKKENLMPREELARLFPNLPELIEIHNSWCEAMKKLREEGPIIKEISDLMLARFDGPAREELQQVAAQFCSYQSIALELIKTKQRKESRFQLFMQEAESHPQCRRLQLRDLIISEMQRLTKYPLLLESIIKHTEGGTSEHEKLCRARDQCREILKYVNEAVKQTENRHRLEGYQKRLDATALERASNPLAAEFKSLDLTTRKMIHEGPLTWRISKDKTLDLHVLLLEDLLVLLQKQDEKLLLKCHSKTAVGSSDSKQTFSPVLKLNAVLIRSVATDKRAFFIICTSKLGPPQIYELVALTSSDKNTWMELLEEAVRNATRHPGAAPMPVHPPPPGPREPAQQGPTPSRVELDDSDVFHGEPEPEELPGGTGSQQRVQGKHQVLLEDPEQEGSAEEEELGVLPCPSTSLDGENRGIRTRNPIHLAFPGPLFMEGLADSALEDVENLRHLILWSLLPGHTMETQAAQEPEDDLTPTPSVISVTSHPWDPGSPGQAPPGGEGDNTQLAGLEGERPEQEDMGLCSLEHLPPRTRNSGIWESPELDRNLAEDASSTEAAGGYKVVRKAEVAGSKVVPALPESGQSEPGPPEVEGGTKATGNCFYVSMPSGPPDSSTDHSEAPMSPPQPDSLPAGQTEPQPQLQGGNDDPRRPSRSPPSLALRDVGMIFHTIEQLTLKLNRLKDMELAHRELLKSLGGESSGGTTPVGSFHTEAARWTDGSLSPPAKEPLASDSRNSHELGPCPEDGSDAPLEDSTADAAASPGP
UniProt Q9Y2V2: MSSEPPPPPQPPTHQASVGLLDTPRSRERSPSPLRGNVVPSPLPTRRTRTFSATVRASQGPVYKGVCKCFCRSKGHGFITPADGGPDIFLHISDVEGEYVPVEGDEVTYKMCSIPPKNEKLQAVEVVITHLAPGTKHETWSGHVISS
UniProt Q16643: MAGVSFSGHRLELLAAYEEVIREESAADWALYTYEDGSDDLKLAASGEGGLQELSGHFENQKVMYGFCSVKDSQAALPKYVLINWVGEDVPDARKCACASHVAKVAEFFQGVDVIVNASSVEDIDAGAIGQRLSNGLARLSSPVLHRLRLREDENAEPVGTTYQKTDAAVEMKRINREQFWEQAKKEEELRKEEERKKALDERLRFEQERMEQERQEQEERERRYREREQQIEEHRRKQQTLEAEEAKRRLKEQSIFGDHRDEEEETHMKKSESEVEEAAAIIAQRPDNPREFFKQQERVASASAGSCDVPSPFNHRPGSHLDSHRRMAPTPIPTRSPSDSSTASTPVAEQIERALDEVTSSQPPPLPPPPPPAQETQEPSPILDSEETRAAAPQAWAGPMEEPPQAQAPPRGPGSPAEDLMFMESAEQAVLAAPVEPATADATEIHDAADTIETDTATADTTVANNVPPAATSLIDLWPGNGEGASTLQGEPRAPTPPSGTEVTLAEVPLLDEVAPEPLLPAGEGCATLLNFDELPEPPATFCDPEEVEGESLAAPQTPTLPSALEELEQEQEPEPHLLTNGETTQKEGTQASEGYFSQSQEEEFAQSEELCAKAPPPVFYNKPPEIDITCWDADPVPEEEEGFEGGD
UniProt O60832: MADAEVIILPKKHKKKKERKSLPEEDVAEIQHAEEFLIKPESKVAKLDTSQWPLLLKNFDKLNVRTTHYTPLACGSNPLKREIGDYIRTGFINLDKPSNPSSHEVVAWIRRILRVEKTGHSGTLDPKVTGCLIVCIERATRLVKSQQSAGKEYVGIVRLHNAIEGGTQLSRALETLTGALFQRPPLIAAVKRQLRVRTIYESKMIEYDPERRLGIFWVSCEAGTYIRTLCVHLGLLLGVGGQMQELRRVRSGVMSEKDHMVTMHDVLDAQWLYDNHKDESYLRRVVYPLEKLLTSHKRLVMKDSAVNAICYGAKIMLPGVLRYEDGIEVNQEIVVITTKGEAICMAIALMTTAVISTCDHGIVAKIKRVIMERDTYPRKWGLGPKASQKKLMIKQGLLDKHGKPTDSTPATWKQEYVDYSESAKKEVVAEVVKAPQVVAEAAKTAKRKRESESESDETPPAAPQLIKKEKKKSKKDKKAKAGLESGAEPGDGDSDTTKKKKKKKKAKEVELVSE

What was measured:
XL888 [1] = compound: T1, CC[C@@H](C)Nc1cc(C(=O)N[C@H]2C[C@H]3CC[C@@H](C2)N3c2ccc(C(=O)C3CC3)cn2)c(C)cc1C(N)=O [XL888]; assay: phosphopeptide melting temperature shift (XL888 minus DMSO); higher = stabilised by drug treatment; conditions: 100 µM; treatment time 2 h; layout: intact cells; SK-Mel 28
Method: (§1)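 Phospho-TPP in intact SK-Mel 28 cells treated with 100 uM XL888 or DMSO for 2 h, heated at 10 temperatures (37-67 C) for 3 min, soluble fraction TMT10plex-labelled and TiO2 phospho-enriched. Melting curves were fitted per phosphopeptide; the value is the melting point difference (drug minus vehicle) in each of two biological replicates.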

XL888 [2] = compound: T1, XL888; assay: as above; conditions: 100 µM; treatment time 2 h; layout: intact cells; SK-Mel 24
Method: as §1, with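 “24” for “28”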

Row | Target | phosphopeptide melting temperature shift (XL888 [1]) | phosphopeptide melting temperature shift (XL888 [2])
1 | ABCF1 phosphosite_109 (phosphosite position: 109) (UniProt Q8NE71) | -1.13 ± 3 °C | -1.15 °C
2 | ABCF1 phosphosite_140 (phosphosite position: 140) (UniProt Q8NE71) | -0.829 ± 0.91 °C | -0.986 °C
3 | ABCF1 phosphosite_228 (phosphosite position: 228) (UniProt Q8NE71) | -1.2 ± 0.48 °C | -0.62 ± 0.12 °C
4 | ACACA phosphosite_80 (phosphosite position: 80) (UniProt Q13085) | -0.0448 °C | 0.0199 °C
5 | ACAP2 phosphosite_521 (phosphosite position: 521) (UniProt Q15057) | 0.749 °C | 1.43 °C
6 | ACLY phosphosite_455 (phosphosite position: 455) (UniProt P53396) | 0.234 ± 0.34 °C | -0.456 ± 0.28 °C
7 | ACTG1 phosphosite_239 (phosphosite position: 239) (UniProt P63261) | -1.7 °C | -1.91 °C
8 | AHNAK phosphosite_135 (phosphosite position: 135) (UniProt Q09666) | 0.782 ± 2.3 °C | 1.88 °C
9 | AKAP11 phosphosite_1242 (phosphosite position: 1242) (UniProt Q9UKA4) | -1.64 °C | 1.26 °C
10 | AMPD2 phosphosite_190 (phosphosite position: 190) (UniProt Q01433) | 1.11 ± 1 °C | 0.0152 °C
11 | ANAPC1 phosphosite_688 (phosphosite position: 688) (UniProt Q9H1A4) | 0.898 ± 0.4 °C | -0.726 ± 0.13 °C
12 | ANKS1A phosphosite_661 (phosphosite position: 661) (UniProt Q92625) | -0.379 ± 0.73 °C | 0.901 ± 0.41 °C
13 | ANP32B phosphosite_244 (phosphosite position: 244) (UniProt Q92688) | -0.319 ± 0.59 °C | 1.11 °C
14 | ANXA2 phosphosite_127 (phosphosite position: 127) (UniProt P07355) | 0.731 ± 0.036 °C | -0.107 °C
15 | ARFGAP3 phosphosite_143 (phosphosite position: 143) (UniProt Q9NP61) | 1.21 ± 0.54 °C | -1.27 °C
16 | ARFGEF2 phosphosite_227 (phosphosite position: 227) (UniProt Q9Y6D5) | 1.26 ± 0.2 °C | 0.572 °C
17 | ARFGEF2 phosphosite_277 (phosphosite position: 277) (UniProt Q9Y6D5) | 5.53 °C | 0.75 °C
18 | ARHGEF11 phosphosite_271 (phosphosite position: 271) (UniProt O15085) | 0.7 ± 1.3 °C | 0.96 °C
19 | ARHGEF11 phosphosite_635 (phosphosite position: 635) (UniProt O15085) | 0.155 °C | -1.07 °C
20 | ARHGEF11 phosphosite_1458 (phosphosite position: 1458) (UniProt O15085) | 1.46 °C | 3.01 °C
21 | ASAP1 phosphosite_717 (phosphosite position: 717) (UniProt Q9ULH1) | 0.36 ± 0.18 °C | 0.469 °C
22 | ASAP2 phosphosite_701 (phosphosite position: 701) (UniProt O43150) | 0.428 ± 0.093 °C | 0.809 °C
23 | BAD phosphosite_75 (phosphosite position: 75) (UniProt Q92934) | 0.477 °C | -0.442 °C
24 | CAD phosphosite_1859 (phosphosite position: 1859) (UniProt P27708) | 0.569 °C | 0.0156 °C
25 | CANX phosphosite_583 (phosphosite position: 583) (UniProt P27824) | 1.28 °C | 3.51 °C
26 | CAPG phosphosite_337 (phosphosite position: 337) (UniProt P40121) | -0.313 ± 0.12 °C | 0.115 °C
27 | CARHSP1 phosphosite_30 (phosphosite position: 30) (UniProt Q9Y2V2) | -1.77 ± 2.9 °C | -1.01 °C

Row | Target | phosphopeptide melting temperature shift (XL888 [1]) | phosphopeptide melting temperature shift (XL888 [2])
28 | CARHSP1 phosphosite_41 (phosphosite position: 41) (UniProt Q9Y2V2) | 2.36 ± 0.79 °C | -0.0572 °C
29 | CARHSP1 phosphosite_52 (phosphosite position: 52) (UniProt Q9Y2V2) | -0.166 ± 0.038 °C | -1.07 °C
30 | CBX3 phosphosite_95 (phosphosite position: 95) (UniProt Q13185) | 0.166 ± 0.62 °C | 0.391 °C
31 | CCDC6 phosphosite_419 (phosphosite position: 419) (UniProt Q16204) | 2.12 ± 0.19 °C | 0.206 °C
32 | CCDC43 phosphosite_139 (phosphosite position: 139) (UniProt Q96MW1) | 0.621 ± 1.2 °C | 1.28 °C
33 | CCNL1 phosphosite_352 (phosphosite position: 352) (UniProt Q9UK58) | 0.31 °C | -1.53 ± 0.59 °C
34 | CDK2 phosphosite_14 (phosphosite position: 14) (UniProt P24941) | 3.66 ± 0.94 °C | 1.45 ± 0.89 °C
35 | CDK2 phosphosite_15 (phosphosite position: 15) (UniProt P24941) | 2.86 °C | 3.02 ± 0.46 °C
36 | CLNS1A phosphosite_102 (phosphosite position: 102) (UniProt P54105) | 1.77 ± 0.78 °C | 1.54 °C
37 | CTR9 phosphosite_925 (phosphosite position: 925) (UniProt Q6PD62) | -0.808 °C | -0.324 °C
38 | DBN1 phosphosite_142 (phosphosite position: 142) (UniProt Q16643) | 0.834 ± 1.3 °C | -0.863 °C
39 | DBN1 phosphosite_337 (phosphosite position: 337) (UniProt Q16643) | 3.4 ± 1.4 °C | 0.522 °C
40 | DDX54 phosphosite_782 (phosphosite position: 782) (UniProt Q8TDD1) | 3.3 ± 1.1 °C | -0.0108 °C
41 | DENR phosphosite_73 (phosphosite position: 73) (UniProt O43583) | 6.16 °C | 0.693 ± 0.2 °C
42 | DHX16 phosphosite_160 (phosphosite position: 160) (UniProt O60231) | -2.99 °C | 0.176 °C
43 | DKC1 phosphosite_494 (phosphosite position: 494) (UniProt O60832) | -1.51 ± 0.78 °C | -1.84 °C
44 | DYNC1H1 phosphosite_4368 (phosphosite position: 4368) (UniProt Q14204) | 0.166 ± 0.071 °C | -0.44 °C
45 | DYNC1LI1 phosphosite_207 (phosphosite position: 207) (UniProt Q9Y6G9) | -0.745 ± 1.7 °C | -0.403 °C
46 | EBAG9 phosphosite_36 (phosphosite position: 36) (UniProt O00559) | 0.793 ± 0.6 °C | 1.92 ± 0.34 °C
47 | EEF1B2 phosphosite_106 (phosphosite position: 106) (UniProt P24534) | 1 ± 0.49 °C | -0.0126 ± 0.051 °C
48 | EEF1D phosphosite_133 (phosphosite position: 133) (UniProt P29692) | 1.25 ± 0.61 °C | 0.585 ± 0.87 °C
49 | EIF2S2 phosphosite_67 (phosphosite position: 67) (UniProt P20042) | -0.9 °C | 0.0157 °C
50 | EIF2S2 phosphosite_105 (phosphosite position: 105) (UniProt P20042) | 0.336 ± 0.19 °C | 2.09 °C
51 | EIF3G phosphosite_42 (phosphosite position: 42) (UniProt O75821) | 0.677 ± 0.82 °C | -1.25 °C
52 | ZNF768 phosphosite_83 (phosphosite position: 83) (UniProt Q9H5H4) | – | 1.47 °C
53 | ZNF768 phosphosite_125 (phosphosite position: 125) (UniProt Q9H5H4) | – | -1.04 °C

Some of the entries so far, with tabs:
Row	Target	phosphopeptide melting temperature shift (XL888 [1])	phosphopeptide melting temperature shift (XL888 [2])
3	ABCF1 phosphosite_228 (phosphosite position: 228) (UniProt Q8NE71)	-1.2 ± 0.48 °C	-0.62 ± 0.12 °C
6	ACLY phosphosite_455 (phosphosite position: 455) (UniProt P53396)	0.234 ± 0.34 °C	-0.456 ± 0.28 °C
12	ANKS1A phosphosite_661 (phosphosite position: 661) (UniProt Q92625)	-0.379 ± 0.73 °C	0.901 ± 0.41 °C
16	ARFGEF2 phosphosite_227 (phosphosite position: 227) (UniProt Q9Y6D5)	1.26 ± 0.2 °C	0.572 °C
22	ASAP2 phosphosite_701 (phosphosite position: 701) (UniProt O43150)	0.428 ± 0.093 °C	0.809 °C
24	CAD phosphosite_1859 (phosphosite position: 1859) (UniProt P27708)	0.569 °C	0.0156 °C
26	CAPG phosphosite_337 (phosphosite position: 337) (UniProt P40121)	-0.313 ± 0.12 °C	0.115 °C
28	CARHSP1 phosphosite_41 (phosphosite position: 41) (UniProt Q9Y2V2)	2.36 ± 0.79 °C	-0.0572 °C
29	CARHSP1 phosphosite_52 (phosphosite position: 52) (UniProt Q9Y2V2)	-0.166 ± 0.038 °C	-1.07 °C
30	CBX3 phosphosite_95 (phosphosite position: 95) (UniProt Q13185)	0.166 ± 0.62 °C	0.391 °C
31	CCDC6 phosphosite_419 (phosphosite position: 419) (UniProt Q16204)	2.12 ± 0.19 °C	0.206 °C
36	CLNS1A phosphosite_102 (phosphosite position: 102) (UniProt P54105)	1.77 ± 0.78 °C	1.54 °C
38	DBN1 phosphosite_142 (phosphosite position: 142) (UniProt Q16643)	0.834 ± 1.3 °C	-0.863 °C
